Measurements reported in PubChem BioAssay AID1259279 (Sanger Institute, 2017).

- Aim: 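Kinase-wide knock-down seeking synergy with BYL719, cetuximab or trametinib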 (primary screen)
- Cells: LS180 human colorectal cancer cells
- Knock-down reagent: siRNA pool against human genes
- Conditions: anchor drug BYL719 at 1 µM, cetuximab at 5 µg/ml or trametinib at 10 nM, or DMSO vehicle only
- Detection: 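Cell viability versus a non-targeting pool, as a fraction and as a robust z-score from replicate means, plus a synergy score for each of three drugs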
- Direction: viability z-score, no drug: higher = more viable cells after knock-down; viability, no drug: higher = more viable cells; synergy score with BYL719 and synergy score with cetuximab and synergy score with trametinib: higher = stronger synthetic lethal synergy with drug
- Call rule: 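Essential (active) calls need a no-drug viability z-score lower than -3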
- Meaning of the calls: active = essential (knock-down alone cuts viability); inactive = no change without drug
The deposit covers 794 reagents; this is a random part of them. Of all reagents, 11 (1.4%) were called active. 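Calls reflect knock-down alone in the vehicle arm, not drug synergy.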 Unmarked entries are inactive. Viability is capped at 1. Not given: the amount of reagent, the time to read-out.

gene | viability z-score, no drug | viability, no drug (fraction) | synergy score with BYL719 | synergy score with cetuximab | synergy score with trametinib
RPS6KA2 | -2.43 | 0.641 | -0.0723 | 0.0107 | 0.0117
HSPB8 | -0.282 | 0.875 | 0.0398 | -0.034 | 0.0685
PIP5K1A | -2.13 | 0.674 | -0.114 | -0.0756 | -0.0818
MPP2 | 0.257 | 0.934 | -0.112 | -0.0669 | -0.0476
PAK1 | 0.223 | 0.931 | 0.0494 | 0.102 | 0.119
CSNK1D | 0.86 | 1 | -0.0907 | -0.13 | -0.0529
EFNA3 | 0.86 | 1 | 0.0537 | -0.0933 | 0.124
RPS6KC1 | 0.86 | 1 | -0.107 | -0.163 | -0.0164
HCK | 0.754 | 0.988 | 0.00408 | -0.153 | 0.0745
PRKAR2A | -0.413 | 0.861 | -0.121 | 0.0113 | 0.0263
PTEN | 0.668 | 0.979 | -0.125 | -0.169 | -0.0437
PANK3 | 0.86 | 1 | -0.0862 | -0.166 | -0.0847
PSKH1 | -0.492 | 0.853 | -0.159 | -0.289 | 0.0198
ZC3H11A | 0.403 | 0.95 | 0.0443 | 0.124 | -0.0196
PRKY | -0.796 | 0.819 | -0.037 | 0.0411 | -0.159
CKM | 0.86 | 1 | 0.0154 | -0.0934 | 0.00601
IKBKB | -0.186 | 0.886 | -0.0972 | -0.171 | 0.116
TJP2 | 0.86 | 1 | -0.103 | -0.166 | -0.162
CDKN2D | -1.67 | 0.724 | -0.0211 | -0.123 | -0.042
MAP3K8 | -0.555 | 0.846 | 0.00912 | -0.0398 | 0.00319
RPS6KB1 | -0.831 | 0.816 | -0.148 | -0.0423 | 0.00102
WNK2 | 0.86 | 1 | -0.201 | -0.166 | -0.00709
PIK3CD | 0.86 | 1 | -0.121 | -0.166 | -0.0334
GALK1 | -0.783 | 0.821 | 0.0305 | 0.0946 | 0.0583
EXOSC10 | -1.19 | 0.776 | -0.0858 | -0.129 | -0.0449
CSNK2A2 | 0.86 | 1 | 0.0912 | 0.188 | 0.16
STK25 | 0.0735 | 0.914 | -0.00113 | -0.0591 | 0.135
FLT1 | 0.86 | 1 | -0.149 | -0.166 | -0.155
MAP3K15 | 0.86 | 1 | -0.00375 | -0.0487 | 0.121
NEK11 | -3.68 (active) | 0.504 | -0.188 | -0.184 | -0.109
SCYL1 | 0.86 | 1 | -0.201 | -0.166 | -0.141
FXN | 0.628 | 0.975 | -0.119 | -0.187 | -0.204
PRKAA2 | -0.0357 | 0.902 | -0.0105 | -0.123 | -0.0124
EPHA7 | 0.222 | 0.93 | 0.042 | -0.0258 | -0.0274
AKT1 | 0.86 | 1 | -0.0971 | -0.04 | 0.0274
DNMT3A | -2.14 | 0.673 | -0.141 | -0.0266 | -0.000349
PRKAR2B | -1.07 | 0.79 | 0.0297 | -0.0462 | -0.127
CSF1R | -2.21 | 0.665 | 0.0365 | 0.056 | -0.0397
IKBKE | -1.71 | 0.72 | -0.11 | -0.139 | -0.136
PFKL | 0.86 | 1 | -0.116 | -0.148 | -0.147
AK3 | 0.86 | 1 | 0.0765 | 0.0147 | 0.0358
GK2 | 0.515 | 0.962 | -0.0396 | -0.0652 | 0.0434
ITSN1 | -0.908 | 0.807 | -0.0625 | -0.0532 | -0.0369
MED24 | 0.86 | 1 | -0.172 | -0.166 | -0.118
IRAK2 | -0.0629 | 0.899 | -0.0956 | -0.0523 | 0.0714
LMTK2 | 0.412 | 0.951 | -0.0674 | -0.000422 | 0.02
TSSK3 | 0.721 | 0.985 | 0.0148 | -0.0385 | -0.163
FASTK | -0.285 | 0.875 | 0.0321 | -0.175 | -0.0139
PTK2B | 0.0786 | 0.915 | -0.0468 | -0.00303 | 0.0264
RPS6KA3 | 0.52 | 0.963 | -0.0471 | -0.175 | -0.0714
FOXP1 | -2.76 | 0.605 | -0.172 | 0.0377 | 0.0178
LATS2 | 0.821 | 0.996 | -0.0226 | -0.169 | -0.103
MAPK7 | 0.387 | 0.948 | -0.111 | -0.209 | -0.0343
GUCY2F | 0.86 | 1 | -0.0678 | -0.0558 | 0.0154
EPHB4 | 0.86 | 1 | -0.1 | -0.0467 | 0.0493
CERT1 | 0.86 | 1 | -0.0495 | -0.108 | -0.0336
GUCY2C | 0.86 | 1 | -0.103 | -0.166 | -0.0106
THNSL1 | 0.66 | 0.978 | -0.158 | -0.134 | -0.0827
MAPK11 | 0.26 | 0.935 | 0.0266 | -0.0974 | 0.0836
CSNK1A1 | -0.79 | 0.82 | -0.223 | -0.11 | -0.0644
CPNE3 | 0.86 | 1 | -0.078 | -0.166 | 0.0911
CDKL2 | 0.672 | 0.98 | 0.134 | -0.146 | 0.0261
DLG1 | -0.241 | 0.88 | -0.128 | -0.076 | -0.122

Looked up above:
Value of GALK1 in “viability, no drug (fraction)”: 0.821
Under “synergy score with BYL719”, PAK1 shows 0.0494
For “synergy score with trametinib”, MAP3K8 reads 0.00319
Entry for PTEN under “synergy score with cetuximab”: -0.169
Under “viability, no drug (fraction)”, MAP3K15 is entered as 1
Result for IRAK2 under “viability, no drug (fraction)”: 0.899
